The data set is described as follows: Plasma and brain levels after oral dosing in sound-sensitive mice. The conditions noted are these: alone or in combination with levetiracetam. How it is done:
Male genetically sound-sensitive mice (17-30 g; N=10), derived from a DBA strain originally selected by Dr Lehmann of the Laboratory of Acoustic Physiology (Paris) and bred in the UCB Pharma Sector husbandry unit since 1978, were submitted to the induction of audiogenic seizures. Levetiracetam (5.4 mg/kg) and sodium valproate (166.2 mg/kg) were administered orally, alone or in combination, 60 minutes before the induction of audiogenic seizures. For testing audiogenic seizure, the mice were placed in the cages, one mouse per cage, in the sound-attenuated chamber. After a period of habituation of 30 seconds, the acoustic stimulus (90 dB, 10-20 kHz) was delivered for 30 seconds via the loud speakers. During this interval, the mice were observed and the presence of the 3 phases of the seizure activity, namely wild running, clonic and tonic convulsions, was recorded.
In all animals, blood samples were collected immediately after the seizure test (I h after dosing) by cardiac puncture under light carbon dioxide anesthesia, into heparinised microtubes. […] Levetiracetam was measured in plasma and brain samples by validated gas chromatography assay with mass detection. With sodium valproate, fluorescence polarization immunoassays were used.
The mean value plus standard deviation was calculated for plasma and brain concentrations of valproate and levetiracetam, and for the brain/plasma ratio. […]

`CN1C(=O)CN=C(c2ccccc2)c2cc(Cl)ccc21` [diazepam, reference compound]: the “plasma concentrations and brain/plasma ratio alone vs in combination with levetiracetam (in words)” value was “unchanged”.
